PubChem BioAssay AID720505 | Drosophila RNAi Screening Center, 2013
Screen: 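Knock-downs that reduce calcium influx once internal stores are emptied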 (primary screen). Cells: Drosophila S2R+ cells. Knock-down reagent: long dsRNA against Drosophila genes. Conditions: thapsigargin (2 µM) in calcium-free buffer to empty internal stores, then 2 mM calcium added back. Measured: 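Fluo-4 signal in 384-well plates read on a FLIPR after thapsigargin (2 µM, calcium-free) store depletion and 2 mM calcium add-back; unnormalised mean endpoint per well; screen run twice, selected wells retested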. Reading the numbers: calcium signal and retest calcium signal: higher = more calcium entry after store depletion. Active means: 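Knock-downs counted as hits when calcium entry dropped relative to STIM1 positive and Rho1 negative controls present on each plate; roughly 1500 genes called, with reductions of differing size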. Calls: active = called as lowering calcium entry; inactive = not called.
The screen tested about 20,000 reagents; below is a random part of those that have a named target and a result. Of all reagents, about 2,100 (10%) were called active. 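Raw plate signals without normalisation; calls rest on control-based scores that were not deposited; replicate 2 separates called from uncalled poorly.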 Reagents against one gene are numbered here. A plus sign joins genes that one reagent is predicted to hit. Reagent sequences are not shown. Not stated in the record: the amount of reagent, the time to read-out.

target,dsRNA no.,"calcium signal, replicate 1","calcium signal, replicate 2","retest calcium signal, replicate 1","retest calcium signal, replicate 2",Call
Rbp6,1,81.3,131,,,inactive
Rbp6,2,88.6,131,,,inactive
Rbp6,3,107,141,,,inactive
CG3038,1,125,113,,,inactive
MBD-like,1,147,125,,,inactive
CG12128,1,148,141,,,inactive
CG17687,1,98.6,108,,,inactive
CG3631,1,132,171,,,inactive
Corp,1,160,70.8,,,inactive
CG13047,1,101,126,,,inactive
iPLA2-VIA,1,58.4,68.3,,,active
CG15019,1,71.7,77.8,,,inactive
mRpL16,1,110,85.8,,,inactive
CG8191 + CG12379,1,89.9,127,,,inactive
Mon1,1,114,87.7,,,inactive
CG12617,1,101,106,,,inactive
Cpr62Bb,1,99.8,118,,,inactive
CG14564,1,99.2,177,,,inactive
CG14564,2,74.2,73.8,,,inactive
Nedd8,1,113,111,,,inactive
dgt1,1,119,87.1,,,inactive
Tsp42Ee,1,85.2,106,,,inactive
ari-2,1,56.1,230,,,inactive
opa,1,111,141,,,inactive
opa,2,99.1,168,,,inactive
opa,3,87.5,124,,,inactive
CG12084,1,156,123,,,inactive
CG11601,1,179,139,,,inactive
Parg,1,103,156,,,inactive
CG4661,1,72,130,,,active
dome,1,117,109,,,inactive
CG42268,1,88.7,105,,,inactive
CG42268,2,96.5,102,,,inactive
CG42268,3,175,117,,,inactive
P58IPK,1,188,105,,,inactive
rpr,1,97.9,173,,,inactive
CG34426,1,103,65.8,,,inactive
GstD11,1,188,178,,,inactive
FASN2,1,81.1,185,,,inactive
FASN2,2,139,169,,,inactive
BRWD3,1,169,244,,,inactive
BRWD3,2,255,209,,,inactive
Mct1,1,110,110,,,inactive
CG31717,1,150,89.3,,,inactive
Xbp1,1,173,152,,,inactive
Xbp1,2,116,105,,,inactive
CG31802,1,101,91.2,,,inactive
parvin,1,51.8,93.2,,,active
Bdbt,1,148,130,,,inactive
CG31835 + CG42585,1,126,111,,,inactive
CG31213,1,107,105,,,inactive
CG31213,2,177,121,,,inactive
put,1,106,123,,,inactive
CG17328,1,110,87,164,162,inactive
CG17328,2,86.5,174,,,inactive
Pcp,1,219,108,,,inactive
Acp76A,1,112,91.9,,,inactive
stg,1,73.9,76.6,,,active
CG11381,1,125,113,,,inactive
Spn42De,1,93.7,108,,,inactive
CG17266,1,147,129,,,inactive
CG17266,2,80.4,220,,,inactive
Drep4,1,90.8,92.5,,,inactive
swi2,1,109,139,,,inactive
HP6,1,134,125,,,inactive
Gr59e,1,176,233,,,inactive
CG43103,1,154,97.4,,,inactive
CG32432,1,95.2,128,,,inactive
CG32432,2,104,142,,,inactive
CG32432,3,124,140,,,inactive
CG6231,1,174,188,,,inactive
CG34011,1,100,115,,,inactive
CG4318,1,122,93,,,inactive
CG14694,1,151,74.7,,,inactive
SCOT,1,143,88.5,,,inactive
CG13086,1,149,108,,,inactive
betaNACtes2,1,115,122,,,inactive
Eb1,1,128,222,,,inactive
lbl,1,155,90,,,inactive
CG7094,1,96.1,120,,,inactive
Tsp42Eg,1,152,137,,,inactive
Tcs6 + PIG-P,1,279,161,,,inactive
CG4781,1,125,220,,,inactive
